# Test results as given in ChEMBL document CHEMBL1141379, “Selective inhibitory activity against MAO and molecular modeling studies of 2-thiazolylhydrazone derivatives” (J Med Chem, 2007).
# Molecular target: T1, Amine oxidase [flavin-containing] A (Bos taurus, UniProt P21398)
# T1 sequence (P21398 whole entry): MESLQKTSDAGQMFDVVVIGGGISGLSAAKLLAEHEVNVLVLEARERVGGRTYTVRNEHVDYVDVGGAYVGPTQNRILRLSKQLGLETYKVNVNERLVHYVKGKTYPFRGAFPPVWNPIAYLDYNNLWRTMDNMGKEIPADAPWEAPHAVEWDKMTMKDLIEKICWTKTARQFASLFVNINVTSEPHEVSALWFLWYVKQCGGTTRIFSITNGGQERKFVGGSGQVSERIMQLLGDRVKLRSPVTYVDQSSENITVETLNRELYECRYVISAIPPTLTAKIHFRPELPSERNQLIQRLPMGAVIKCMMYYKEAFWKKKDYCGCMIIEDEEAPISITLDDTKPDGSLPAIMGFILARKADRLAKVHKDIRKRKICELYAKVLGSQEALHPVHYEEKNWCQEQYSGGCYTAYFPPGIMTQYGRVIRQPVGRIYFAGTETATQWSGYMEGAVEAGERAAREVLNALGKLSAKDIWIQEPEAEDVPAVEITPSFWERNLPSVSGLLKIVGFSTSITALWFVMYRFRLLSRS
# Assay: Inhibition of bovine brain mitochondria MAOA
compound,measurement,value
CC1CCCC/C1=N\Nc1nc(-c2ccccc2)cs1 (stereo unspecified),Ki,0.0407 µM
